# Test results reported in publication PMC10163288.
# This is one part of the list.
# B1: il2ra_site2_2erj_normal_mot_HHH_b1_05402_000000256_0001_22_39_H_._HHH_b1_03332_0001_0000700044_0000001_0 (protein)
# chain: SSSSDLEEEIRELLEELERAIREGDKELVRKLQERISQLIYELGDEELFSELAELAIAIYTSSSS
# B2: il2ra_site1_1z92_normal_mot_3cad0fa5fd511b0551b272d6504d3e9d_0001_1_000000015_0001_37_51_H_._9024fc7fac297d0408f6c2d12835a220_0001_1_0002_0000200029_0000001_0 (protein)
# chain: DLEELLEEAEERGDVELVTVLRFLLRLAENLDVPPEEAIKALKRAAKQMGNPRLEELVKKVEELH
# B3: il2ra_site1_2b5i_normal_mot_ems_3hM_2197_000000181_0001_1_19_H_._HHH_b1_08418_af2_0001_0000200030_0000001_0 (protein)
# chain: SSSSSEEVEKAEELAEEVLELLKELGDEYLFEFVRRRLEALRERQDPRAAKSLIRAAAAYSSSSS
# B4: il2ra_site2_3nfp_normal_mot_HHH_b2_04451_000000238_0001_21_37_H_._HHH_b1_04560_af2_0001_0000800047_0000001_0 (protein)
# chain: SSSSDEEEEKIKELIKEAEELLEEGDPYEALEVLAEASQLAARLGNDELARRILELFEKVQSSSS
# B5: il2ra_site2_3nfp_sap_26_mot_HHH_b2_05313_af2_000000119_0001_39_56_H_._254fc17bb08746de5dae9ef87d53b160_0001_0001_0000100003_0000001_0_0001 (protein)
# chain: SSSSLEEEVEELLREARELLEEGDKFQAAHLVLRASELAAKNNNEELARKILELFEEIQRRSSSS
# B6: il2ra_site1_3nfp_sap_20_mot_HHH_b2_06507_000000196_0001_21_38_H_._HHH_b1_07336_0001_0000300011_0000001_0_0001 (protein)
# chain: SSSSSKEEVHELAQRVLRLAFEGDEEEAKELLREAEELAEELGDESSKRFLELLKRDIERWSSSS
# B7: il2ra_site2_2erj_normal_mot_64bd02d26d05ce9f1a62b616cea0b888_0001_af2_000000029_0001_36_49_H_._HHH_b2_05536_af2_0001_0000800038_0000001_0 (protein)
# chain: SSSSDERLERLYKLLVRLLRLAANGDEEEFEKLAEELQELAEELQSNSVEEVVESLKRLLSSSSS
# B8: il2ra_site1_2b5i_normal_mot_HHH_b2_06044_000000134_0001_1_20_H_._HHH_b1_06937_af2_0001_0000100002_0000001_0_af2pred_dldesign_0_af2pred (protein)
# chain: SSSSDEKEDEVYDLFNEALELKKQGKKEEAKELLEKAIEVAEAAGLEKAVEELRYFLEKLSSSSS
# B9: il2ra_site2_3nfp_sap_26_mot_HHH_b1_07277_000000260_0001_23_39_H_._HHH_eva_0486_af2_0001_0000400016_0000001_0_0001 (protein)
# chain: SAELARRIVELVRRGDPVAEALFALLADVAYKGDPELERLLEEALEALERGNPEEAEEIVRKALK
# B10: il2ra_site1_2b5i_sap_10_mot_HHH_b2_04274_000000042_0001_1_19_H_._HHH_b2_02970_0001_0000300034_0000001_0_0001_af2pred_dldesign_0_af2pred (protein)
# chain: SPKRALFEVLDEIVKKDPRFEDAVQEVMRLLSRGDPRLAARAQELIDALEEVDPEAAARLRAALE
# B11: il2ra_site1_3nfp_normal_mot_HHH_b1_04372_000000168_0001_18_32_H_._2e98e7bbb80d485e9cb659e66a2d41f2_0001_af2_0001_0000300019_0000001_1 (protein)
# chain: DNREFVIELLKKDPENEDIAEALKELLELAEKGDQEAFKLFRELNQLLAQGDPEEAKRLAEEVLK
# B12: il2ra_site1_3nfp_normal_mot_b29dd7dff93b1ac3f1fd774082f773f6_0001_000000159_0001_35_51_H_._HEEHE_0493_0001_0000300038_0000001_1_af2pred_0001_af2pred_1 (protein)
# chain: DREELVAEAIEEIAEIAGVPSVSVSVENGTLRVEFEGNDFRVEAARRIAERMVKANNVEIEIEVR
# B13: il2ra_site2_2erj_sap_19_mot_66c2fca85847babee3b8944584cfd08f_0001_1_000000223_0001_16_30_H_._c264f418a867ce4938133f27b88868c4_0001_af2_0001_0001200048_0000001_0 … (protein)
# chain: SSSSSDEEELEERVRRLLEEAEKIEDIEEALRLLQEADQLAVEADDPELLEEVDRVARRLSSSSS
# B14: il2ra_site2_2erj_normal_mot_HHH_b2_05804_000000098_0001_44_58_H_._HHH_b1_07085_0001_0000100001_0000001_0 (protein)
# chain: SSSSSSEKEVWERVARLLAKLLEVDEEEAEELLREAEELAREAGNPFLRRYVEFARRAHSSSSSS
# B15: il2ra_site1_1z92_normal_mot_01209686ea234b34325f918445e6eade_0001_af2_000000154_0001_18_33_H_._7b307295d781cb7152fbdfa8f828ada6_0001_0001_0000600015_0000001_0_a … (protein)
# chain: SKLEEVERLLEELAKKDPLARELLLALEEMKRAGLPPRSIALALVRLAEHAGNPELAELIQEILR
# B16: il2ra_site2_3nfp_normal_mot_HHH_b1_06642_af2_000000244_0001_21_37_H_._ems_3hM_1036_0001_0000100008_0000001_0_af2pred_0001_1_af2pred_swapped (protein)
# chain: PEEEEEELQRRALELYAAVADATSEEEAKRIIKEAKEWVEEVGDEEVAKLLKLALEEARELVERS
# B17: il2ra_site1_2b5i_sap_11_mot_HHH_b1_03295_000000174_0001_24_40_H_._HHH_b2_04752_0001_0000600034_0000001_0_0001 (protein)
# chain: SSSDRQELDKIASELVDELAEEFGLDSEQINALVRLATELVWRGVSPEEIEEELEKLAKELSSSS
# B18: il2ra_site1_1z92_normal_mot_HHH_b2_05498_af2_000000074_0001_38_52_H_._HHH_b1_06558_0001_0000100006_0000001_0 (protein)
# chain: SSSDSEERAHELAEFAIEAYEITGSEFARELVELKIELLQRLGDEELVEELEELLKEAERRSSSS
# Target: il2ra, P01589
# Assay: yeast display titration
row,Binder,apparent Kd
1,B1,inactive: no binding seen
2,B2,inactive: no binding seen
3,B3,inactive: no binding seen
4,B4,inactive: no binding seen
5,B5,inactive: no binding seen
6,B6,inactive: no binding seen
7,B7,inactive: no binding seen
8,B8,inactive: no binding seen
9,B9,inactive: no binding seen
10,B10,inactive: no binding seen
11,B11,inactive: no binding seen
12,B12,inactive: no binding seen
13,B13,inactive: > 455 nM
14,B14,inactive: no binding seen
15,B15,inactive: no binding seen
16,B16,inactive: no binding seen
17,B17,inactive: no binding seen
18,B18,inactive: no binding seen

# Copied from the list:
# B15 | apparent Kd: inactive: no binding seen
# B5 | apparent Kd: inactive: no binding seen
